In all, about 52,000 sequences went through this assay and about 210 (0.4%) were called active.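 Rule for the calls: active = gene whose silencing raises cell survival under the drug, median off-target-corrected z-score across its silencing RNAs 2 or more; inactive = the rest.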 The list shows a part of the results.

A short description of this test: Resistance to Poly (ADP-Ribose) Polymerase inhibitor: Gene Identification via Genome-wide siRNA Screen. As to conditions: mouse BRCA2 R2336H ES cells, olaparib, CellTiter-Glo viability; active compounds read high. In short, it runs like this:
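Mouse BRCA2 R2336H ES cells were reverse-transfected with siRNA (20 nM final), treated at 48 h with 500 nM olaparib, and read by CellTiter-Glo after 72 h. Scores: MAD-based z per siRNA, median per gene, seed off-target correction.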
A general note: ATP-based viability assays read luminescence as a measure of living cells.
On to “GGAUUUUUGUGCAGAGUUATT against C630028N24Rik”, for which the z-score was inactive: 1.31. Next, “CGAUGUAACAAAUGAGAUUTT against 1700034P14Rik”: inactive: -1.23. The value for GGUAAUUGGUAGAACAGUUTT against Olfr837 was inactive: -1.05; that for GGACUCACCCUGAGAGAUUTT against Abca4 was inactive: -1.14. The value for “GGAGUGUAAUCCUCCAUCATT against 0710007A14Rik” was inactive: -0.0452; that for GGGUCAUGUGAGCCAAUUUTT against Tcf20 was inactive: -0.628; that for GGACCUUUCAUCAACCCAUTT against Olfr676 was inactive: 1. Regarding GGAAACCCAAUAUCAAACUTT against Rnf138, the z-score is inactive: -0.324.

“GGUGACCCAGUUGCUGAAUTT against 2310047C17Rik”: the z-score is inactive: 0.198. The value for GCUCUUUUUAACACUCUUATT against Bace1 was inactive: -0.404.

With GGUGUGAUGCAUCAAGUCATT against Trip12, the z-score was inactive: -0.474. CCACCAUUUAUAUUUGGUUTT against Tmem20: the z-score is inactive: 0.51. Regarding “GCGUGAAGGAGCACAGAUUTT against 4933409K07Rik”, the z-score was inactive: -0.899. On to GGUGGACUUAUAUGGUUUUTT against Siat4a, for which the z-score was inactive: 1.46. The value for GGGAUGAGUUCUUGUAAAUTT against Unc50 was inactive: -0.512; that for GGAAAUUACAGAGACAAUUTT against Rbm3 was inactive: 0.0684; that for GCAUUCCUUUCCAAAAGGATT against Rpl24 was inactive: -2.91. The value for GGUCCUGAAAAUCGCUCAGTT against Ctrb1 was inactive: 2.06.

For GGAGAAAGCAAAAACUAUATT against D11Moh35, the z-score was inactive: -0.442. Next, “GCCUAUGAUCUGGUUAGACTT against D5Ertd606e”: inactive: 2.74; GGAAGUGAGUUUUUCAGCUTT against Bcl6b: inactive: 3.03; GGAAAGAAACUAAGGAAAATT against Arhgap15: inactive: 1.33. The value for GGCUGUCAUCUGGACAGAUTT against Slc5a6 was inactive: 2.31. The value for GUACAACUAGACAUUAUGCTT against Hist3h2bb was inactive: 1.17; that for CCAGGGACAAGAUUUAUCUTT against Pcdhgb4 was inactive: -1.32. “CCCUGCUUUCGGAAUUACATT against C030016D13Rik”: the z-score was inactive: -0.592.

As to “GGCCAUUAGAAGCAAGAUUTT against 9030611N15Rik”, the z-score was inactive: -1.29. Regarding CCUGCUAUACAUUGAACCCTT against Lhcgr, the z-score is inactive: 0.0786. The value for GGGAAAGAGAUACAAUGACTT against Prlpk was inactive: -0.962.

“GGGCUUUUAUAACAAAUGUTT against 3110005P07Rik”: the z-score is inactive: 0.486. Next, GGGUUCGAGGAAAAGGAAGTT against BC021611: inactive: -0.851; GGUGUUGUCUUACAUUAAUTT against Esam1: inactive: 2.58; GGUGGUUCUUUUAAAGUUUTT against Dlat: inactive: -0.379. Consider CCGAGCUAGAUCAGCUAUUTT against Mertk, for which the z-score is inactive: 0.0536. With GGAGAUGAUCUUCUGAAAUTT against Klra17, the z-score is inactive: 0.495.

Consider GGAAAGAGAAAACUUUAGCTT against Nme7, for which the z-score is inactive: -0.469. For the sequence “GGAACUGAACCACUUCAAATT against 2010109I03Rik”, the z-score was inactive: -0.181. “GGUGCUAGUGUAUGAAUUATT against 9830109N13Rik”: the z-score was inactive: 2.24. Next, GGAAGAUGUGGCUUGUGUCTT against Ly6d: inactive: -2.03.

Consider CCUAUAUGGUACCACACUCTT against Olfr31, for which the z-score is inactive: -0.234. With GGACACACAGUGAUCAUAUTT against Fhl1, the z-score was inactive: -1.88. For CGAUGACUAUUUUUCUUGATT against Sgtb, the z-score was inactive: 0.355. “GGGCGAACACUCCAAAGAATT against 1810011K17Rik”: the z-score is inactive: -0.795. GCCCUUGAAGAUUUGAGGUTT against Cops8: the z-score was inactive: -2.49. As for GCACAAGACUAACAAUACGTT against Spnb3, the z-score is inactive: -0.423. The value for GGGUGAAAAGGUUUCUGUCTT against Lactb was inactive: 0.863. With GGAAUGUUGGAAUCAAUUGTT against Gcm1, the z-score was inactive: 1.58. Take GUACAAGCCACUGGAUCUGTT against Smad6: the z-score was inactive: 1.02. In the case of GGCAUGAUAGUGUAAUAACTT against Piga, the z-score is inactive: 0.496. Consider CGAAAAAUCAGAUUCCUCCTT against Coil, for which the z-score is inactive: -0.83. Next, GGACCUAUACCUGAAGCCUTT against Eef2: inactive: -0.974; GGCCAAUAUGUGCUGGUAUTT against Ihh: inactive: -1.39. Next, GCGAUCCUGACUUGUUCAATT against Jmjd3: inactive: -0.103.

On to GGAUAAGCUUAUCAGCGUGTT against Stim1, for which the z-score was inactive: 0.342. As for GGAAAGUUCAGAGGAGAGATT against Batf, the z-score is inactive: -0.17. The value for CCGUGUCUUAGGUGAUCACTT against H2-DMb1 was inactive: -1.08. Next, GGUUCCGAUUCUGUGGCAGTT against Chrm5: inactive: 1.18; GCUUUAUAAUCGGCUCUCCTT against Zdhhc6: inactive: -0.231; GCUAAUUUGACAAAGACGGTT against Bfsp2: inactive: 1.26.

On to GCUUAUCGAAUUCUUCUCCTT against Tmem4, for which the z-score was inactive: 0.421. The value for “GGAACUAGAGACACUGAUUTT against 1700024D23Rik” was inactive: 0.948; that for GGAUCUUCGGGACACCUUUTT against Mylpf was inactive: -0.521; that for GGAAGAAAAGAAUUCUAUGTT against BC027174 was inactive: 0.235. As for GGCCCUCACUCGUAUAUUUTT against Rhot1, the z-score is inactive: -0.881.

Take CCCAGGAGUCCGACUUUACTT against Kirrel2: the z-score is inactive: -1.1. With “GGUAGACUGAACUUCAGCATT against 5430431G03Rik”, the z-score is inactive: -0.0988. Next, GGGUUCCUCAGAGACUGAGTT against Esrra: inactive: -0.971. Turning to GGCGACACAAUAAGACAGATT against Wdr19, the z-score was inactive: -1.11. In the case of GGACCUCAUCUACAGAAUGTT against Stk22a, the z-score was inactive: 0.406.

As for GGCCAGAGAGGAGAACUAATT against Zfp202, the z-score was inactive: -0.381. Next, CCUCUGCCCAUUAUCGAAGTT against BC034834: inactive: -0.363; GGGUAUUGAAUCAGGCAUCTT against Olfr628: inactive: -0.513; GGUCCCUAGCACUAUUUUUTT against Hes6: inactive: -0.919. Next, GGAGAACAUUGCUAAAUGUTT against Slc34a2: inactive: 0.948; CCUGUAGAUUCAAUUAGAGTT against Vkorc1l1: inactive: -0.0634; GGUGUACGUGAACAACUCCTT against Kcnmb4: inactive: -0.111. Turning to GCUUUUACUGUACCUCUUCTT against Tmc4, the z-score was inactive: -0.0626. For the sequence “GGAGUGAGCAUUUACUUUGTT against 1110018G07Rik”, the z-score is inactive: -0.774. The value for GCCAAAGCCUAGAGCCAAUTT against Olfr410 was inactive: -1.57; that for GGUGUUUGGGAACAAGAUGTT against Eif2ak3 was inactive: -0.00406; that for “GGCCAGAUUACCAGCAAUATT against 1810009J06Rik” was inactive: -0.757. The value for “GGCUUCGCUAACCAUAGUUTT against A230098A12Rik” was inactive: -0.142.

GGGCAUGUGAUAGAACAAUTT against Stoml1: the z-score is inactive: -0.862. On to “CGAGCAAUGUUAAAAAUGATT against 5033405K12Rik”, for which the z-score was inactive: -0.315. Turning to “GGCAGAUUGACAGUUUACCTT against C920008G01Rik”, the z-score was inactive: 0.186. Next, “GGAUCAACCUAGAAGCUUGTT against 2610019A05Rik”: inactive: 0.323. Next, GGUAUGAUGAAAAUACACATT against Mmp1a: inactive: -0.428; GGAUUUGGAAAAAGUGUUUTT against Hprt1: inactive: 0.529. With GGCUCAGCAGCAGAAACAATT against Txndc9, the z-score is inactive: -1.27. In the case of GGAAGAUAACCAUUUUGAATT against ORF21, the z-score is inactive: -0.523. With CCUGGUACAAGGAACCAGUTT against Zim1, the z-score was inactive: -1.61.

Take GGCCUUUCAUGAAAGCUCATT against BC002236: the z-score was inactive: -1.44.

As for GCGAAGACUUCUUCUACAUTT against Lzts1, the z-score was inactive: -0.393. Next, GGCUUCACCAUUUUCAUAATT against P2rx5: inactive: -0.548; GGAAUCAAAUGGCGUAGGUTT against Thrap2: inactive: -0.37; CGUGAGUGUCCAUGUGACCTT against Slp: inactive: -0.799. Next, “GGUCAGAAGAAAAGACAAATT against 2610029K21Rik”: inactive: -0.458; CCGGAGAUGUAAAUGCAAATT against Arf4l: inactive: 1.45; CCUCAUCAAUCAGCCUAUGTT against Olfr1178: inactive: -2.76. Next, CCGGAGUAACUCUCUAACATT against Apbb3: inactive: -0.925. With CGCAUCCGCUAGUAGCUUGTT against Fscn1, the z-score is inactive: -0.203. Regarding GCCUUAACUAGUUUGUGUCTT against Shh, the z-score was inactive: 0.538.

On to GCAUGCCUCCAAUAUGCUUTT against Vps35, for which the z-score is inactive: -0.302. The value for GGGAUGUGCUUUCAGGCUGTT against AU040320 was inactive: 0.79.

These data come from PubChem BioAssay AID1347423 (Functional Genomics Laboratory (NCATS/FGL), 2020).
